According to patent publication US20070197488A1, “Prodrugs of ERbeta-selective substances, process for their production, and pharmaceutical compositions that contain these compounds” (priority 2005, published 2007):
For at least one compound, name, drawing or mass did not settle the structure.

Tested on: erythrocytes
Experiment: Blood plasma concentration ratio (displacement of 14C-estradiol sulfamate from erythrocytes)
Assay type: in vitro ADME
Conditions: human blood

## C=C[C@@]12CCc3cc(O)ccc3[C@H]1CC[C@]1(C)[C@@H](OC(=O)c3cccc(S(N)(=O)=O)c3)CC[C@H]12 [Example 1, (3′-Hydroxy-8′-vinylestra-1′,3′,5′(10′)-trien-17′β-yl)-3-sulfamoyl benzoate]
  concentration ratio between erythrocytes and plasma: approximately 1.4:1
